Data as given in patent publication EP4799634A2.
Results are given in words; binding and its absence hold for the method and conditions named. Some results given as binding are weak or reduced against the parent protein; the word gives no strength.

Chains of the proteins cited; added tags and fusions are not shown. Lines headed by an entry give the natural chain unless they say otherwise; changes in a name come on top. A line that says so, or that is headed by a name, gives the form on record, which may keep a tag or linker. Residues count along the entry.
TNFa mutant Y119R (P01375, form named): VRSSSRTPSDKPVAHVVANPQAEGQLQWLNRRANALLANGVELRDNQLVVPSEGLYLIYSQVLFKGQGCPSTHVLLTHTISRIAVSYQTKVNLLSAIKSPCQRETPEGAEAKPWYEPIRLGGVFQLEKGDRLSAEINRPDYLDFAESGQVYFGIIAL
TNFa mutant Y119A (P01375, form named): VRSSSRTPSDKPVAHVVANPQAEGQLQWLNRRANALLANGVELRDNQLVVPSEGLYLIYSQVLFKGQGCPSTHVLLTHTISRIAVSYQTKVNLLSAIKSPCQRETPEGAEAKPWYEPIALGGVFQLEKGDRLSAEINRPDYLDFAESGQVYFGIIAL
UniProt O35235, residues 158-316: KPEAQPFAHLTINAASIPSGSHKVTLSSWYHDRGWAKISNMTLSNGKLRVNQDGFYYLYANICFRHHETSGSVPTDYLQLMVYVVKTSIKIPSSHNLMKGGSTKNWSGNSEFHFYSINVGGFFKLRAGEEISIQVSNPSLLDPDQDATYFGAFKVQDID

How the values were obtained:
TNFa mutant Y119R [1] = target: TNFa mutant Y119R (UniProt P01375); assay: ELISA OD450nm on the Y119 mutants (Figure 12A)
TNFa mutant Y119A [2] = target: TNFa mutant Y119A (UniProt P01375); assay: ELISA OD450nm on the Y119 mutants (Figure 12A)
TNFa mutant Y119R [3] = target: TNFa mutant Y119R (UniProt P01375); assay: Octet RED96 (bio-layer interferometry)
TNFa mutant Y119A [4] = target: TNFa mutant Y119A (UniProt P01375); assay: Octet RED96 (bio-layer interferometry)
mouse RANKL (mouse) = mouse RANKL (mouse) (UniProt O35235); assay: ELISA, protocols similar to example 2.2

Row | Binder | binding (TNFa mutant Y119R [1]) | binding (TNFa mutant Y119A [2]) | binding (TNFa mutant Y119R [3]) | binding (TNFa mutant Y119A [4]) | binding (mouse RANKL (mouse))
1 | N11 (designed binder) MVKVKFVMFGKEKEVDTSKIVHVMRQGKLVHFWYEDNGKIDKGFVPEKDAPKELLDMLARAEREK | binds | binds | binds | binds | –
2 | F10 (designed binder) VKVKFRSDGEEKEVDTSKILLVARQGKIVMFGYDDNGKPGIGLVWEKDDPKELLDMLARAERGK | – | – | – | – | binds
